Experiments:
Assay type in all cases: cell-based
A549 = experiment: Cell viability (CellTiter-Blue, 72 h), A549 lung cancer cells; settings: A549, 1% FBS
Method: (§1) The following cell lines were tested in this example: Lung Cancer (A549, NCI-H460); Pancreatic cancer (PANC1, Mia-Pa-Ca-2); Melanoma (WM115, A375); Ovarian cancer (OVCAR3, SKOV3); Gastric cancer (MKN45, HGC-27); Renal cancer (ACHN) and Bladder Cancer (RT112).
(§2) Each tumour cell line was maintained in vitro in RPMI 1640+10% heat inactivated FBS and 2 mM L-glutamine (growth media) at 37° C. in 5% CO2 and humidified conditions. The cells were harvested, washed, re-suspended into growth medium and counted. The cells were re-suspended into assay media (RPMI 1640+5% heat inactivated FBS+ and 2 mM L-glutamine) at 4×10^4 cells/ml (dependent upon cell type) and plated into the middle 240 wells of 384 well tissue culture plates (Corning CellBind, black-wall plates) 25 μl/well aliquots; 50 μl of growth media was aliquoted into the outer wells. There were 3 plates for each cell line.
(§3) The plates were incubated overnight at 37° C., in 5% humidified CO2.
(§4) The phytocannabinoid test compounds were prepared in 100% DMSO vehicle at a stock concentration of 20 and 40 mM.
(§5) Starting with the 20 mM stock in DMSO, this was serially diluted (2 fold) in DMSO in a 96-well plate, to 20 (no dilution), 10, 5, 2.5, 1.25, 0.625, 0.315, 0.157 and […]. Following this, 10 ul of each compound dilution was diluted into 990 ul of 1% (v/v) FBS media in a deep well block making the final concentrations of 200, 100, 50, 25, 12.5, 6.25, 3.125, 1.56 and 0.79 μM (2× final assay concentrations and 1% DMSO).
(§6) An equal volume of each cannabinoid in the combination (stock concentration 40 mM) was mixed together to make a stock of 20 mM of each cannabinoid in DMSO. This was serially diluted (2 fold) in DMSO in a 96-well plate, to 20 (no dilution), 10, 5, 2.5, 1.25, 0.625, 0.315, 0.157 and […]. Following this, 10 ul of each combination dilution was diluted into 990 ul of 1% (v/v) FBS media in a deep well block making the final concentrations of 200, 100, 50, 25, 12.5, 6.25, 3.125, 1.56 and 0.79 μM (2× final assay concentrations and 1% DMSO).
Taxotere SOC was prepared in 100% DMSO to give a stock concentration of 10 mM. This was diluted in DMSO from the stock solution to 200 μM, then serially diluted (3-fold) in DMSO to 200 (no dilution), 66.66, 22.22, 7.41, 2.47, 0.82, 0.27, 0.09, 0.03 μM. 10 ul of each of the taxotere dilutions was diluted in 990 ul of 1% (v/v) FBS media making the final concentrations of 2, 0.67, 0.22, 0.074, 0.0247, 0.0082, 0.0027 0.0009, 0.0003 μM (2× final assay concentrations and 1% DMSO).
(§7) The plates were incubated for 72 h at 37° C. in 5% humidified CO2. To develop the plates, at 72 h, 10 μl of CellTiter-Blue™ reagent was added to each test/blank well.
(§8) The plates were incubated at 37° C., 5% humidified CO2. Fluorescence was measured using a Flex II Station plate reader (570 nm excitation wavelength, 600 nm emission wavelength, 590 nm cut-off) after 3 h.
(§9) The phytocannabinoid compounds CBD, CBGA, CBG, CBDA, THCV and THC were tested on a panel of lung (A549, NCI-H460), pancreatic (PANC1, Mia-Pa-Ca-2), melanoma (WM115, A375), ovarian (OVCAR3, SKOV3), gastric (MKN45, HGC-27), renal (ACHN) and bladder (RT112) cancer cell lines according to the protocol for 72 h in media containing 1% FBS.
(§10) The IC50 values for each phytocannabinoid and combination of CBD with the other phytocannabinoids was calculated for each cell line. The raw data values expressed in relative fluorescent units were normalised to the vehicle for each individual plate and any reduction in fluorescence indicated a decrease in viability.
(§11) This calculation was as described in Example 1 above.

WM115 = experiment: Cell viability (CellTiter-Blue, 72 h), WM115 melanoma cells; settings: WM115, 1% FBS
Method: as §1, §2, §3, §4, §5, §6
(§12) Cisplatin (stock of 1 mg/ml=3.33 mM in water) was diluted in 1% FBS media to give a stock concentration of 1 mM. This was then diluted in 1% FBS media from the stock solution to 200 μM, then serially diluted (3-fold) in 1% FBS media to 200 (no dilution), 66.66, 22.22, 7.41, 2.47, 0.82, 0.27, 0.09, 0.03 μM (2× final assay concentrations; no DMSO).
as §7, §8, §9, §10, §11

SKOV3 = experiment: Cell viability (CellTiter-Blue, 72 h), SKOV3 ovarian cancer cells; settings: 1% FBS
Method: as §1, §2, §3, §4, §5, §6, §12, §7, §8, §9, §10, §11

SMILES: CCCCCc1cc(O)c(C/C=C(\C)CCC=C(C)C)c(O)c1C(=O)O [CBGA, Cannabigerolic acid]
- m (shape parameter of dose effect curve) (A549): 4.27
- m (shape parameter of dose effect curve) (WM115): 3.78
- m (shape parameter of the curve) (SKOV3): 4.58

SMILES: CCCCCc1cc(O)c(C/C=C(\C)CCC=C(C)C)c(O)c1 [CBG, Cannabigerol]
- m (shape parameter of dose effect curve) (A549): 10.40
- m (shape parameter of dose effect curve) (WM115): 3.25
- m (shape parameter of the curve) (SKOV3): 8.30

SMILES: CCCc1cc(O)c2c(c1)OC(C)(C)[C@@H]1CCC(C)=C[C@@H]21 [THCV, Tetrahydrocannabivarin]
- m (shape parameter of dose effect curve) (A549): 4.01
- m (shape parameter of dose effect curve) (WM115): 6.56
- m (shape parameter of the curve) (SKOV3): 6.50

SMILES: C=C(C)[C@@H]1CCC(C)=C[C@H]1c1c(O)cc(CCCCC)c(C(=O)O)c1O [CBDA, Cannabidiolic acid]
- m (shape parameter of dose effect curve) (A549): 2.30
- m (shape parameter of dose effect curve) (WM115): 3.16
- m (shape parameter of the curve) (SKOV3): 2.76

SMILES: C=C(C)[C@@H]1CCC(C)=C[C@H]1c1c(O)cc(CCCCC)cc1O [CBD, Cannabidiol]
- m (shape parameter of dose effect curve) (A549): 5.17
- m (shape parameter of dose effect curve) (WM115): 2.11
- m (shape parameter of the curve) (SKOV3): 6.45
